According to the supplement of paper PMC9578143, “Small-Molecule Ebselen Binds to YTHDF Proteins Interfering with the Recognition of N^6-Methyladenosine-Modified RNAs” (ACS Pharmacology & Translational Science, 2022):
This is one part of the list. Baselines shift from plate to plate; read single values as rough.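 Hits were defined as a z-score below −3.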

The compounds below were run against T1, YTHDF1 YTH domain (aa 365-554) (UniProt Q9BYJ9) (assay: tryptophan fluorescence intensity z-score (mean); higher = higher fluorescence, less quenching (negative = binding / quenching)). Details: 10 µM.
T1 sequence (whole entry): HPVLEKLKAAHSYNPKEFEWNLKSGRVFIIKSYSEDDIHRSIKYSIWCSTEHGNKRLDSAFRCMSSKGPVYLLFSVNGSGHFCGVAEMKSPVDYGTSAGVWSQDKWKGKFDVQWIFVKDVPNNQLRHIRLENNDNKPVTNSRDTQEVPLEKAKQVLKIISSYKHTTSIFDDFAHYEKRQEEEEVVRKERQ

Row | SMILES | tryptophan fluorescence intensity z-score
1 | CC1CC(OC(=O)c2ccccc2O)CC(C)(C)C1 (stereo not given) (plate: M 9-10) | inactive: -0.289
2 | O=C(CCCN1CCN(c2ccccn2)CC1)c1ccc(F)cc1 (plate: M 9-10) | inactive: -0.131
3 | C[C@H](CCC(=O)O)[C@H]1CC[C@H]2[C@@H]3[C@@H](O)C[C@@H]4C[C@H](O)CC[C@]4(C)[C@H]3CC[C@]12C (plate: M 5-6) | inactive: -1.06
4 | CC(C)c1ccc2c(c1)CCC1[C@](C)(CN)CCC[C@]21C (stereo not given in full) (plate: M 19-20) | inactive: 0.421
5 | CN1CCN(C(c2ccccc2)c2ccccc2)CC1 (plate: M 1-2) | inactive: 0.222
6 | C[C@]12CC[C@@H]3c4ccc(OC(=O)c5ccccc5)cc4CC[C@H]3[C@@H]1CC[C@@H]2O (plate: M 7-8) | inactive: 0.0411
7 | O=C(O)c1ccccc1C(=O)Nc1ccc(S(=O)(=O)Nc2nccs2)cc1 (plate: M 7-8) | inactive: -0.193
8 | C[N+](C)(C)CC(=O)O (plate: M 7-8) | inactive: 0.19
9 | OCCN(CCO)c1nc(N2CCCCC2)c2nc(N(CCO)CCO)nc(N3CCCCC3)c2n1 (plate: M 3-4) | inactive: -0.454
10 | CC(=O)OCC(=O)[C@@]1(O)CCC2C3CCC4=CC(=O)C=C[C@]4(C)[C@@]3(F)[C@@H](O)C[C@@]21C (stereo not given in full) (plate: M 13-14) | inactive: 1.12
11 | C[C@@H]1C[C@H]2[C@@H]3CCC4=CC(=O)C=C[C@]4(C)[C@@]3(F)[C@@H](O)C[C@]2(C)[C@@]1(O)C(=O)COP(=O)(O)O (plate: M 1-2) | inactive: 0.365
12 | C(=C\c1ccccc1)/CN1CCN(C(c2ccccc2)c2ccccc2)CC1 (plate: M 7-8) | inactive: -0.474
13 | CCOC(=O)n1ccn(C)c1=S (plate: M 23-24) | inactive: 0.284
14 | COc1cc(O)c2c(c1)C(=O)c1cc(C)cc(O)c1C2=O (plate: M 19-20) | inactive: 0.196
15 | O=C1CN(/N=C/c2ccc(-c3ccc([N+](=O)[O-])cc3)o2)C(=O)N1 (plate: M 7-8) | inactive: -0.0151
16 | C=C[C@@H](C1=CC(=O)C(OC)=C(OC)C1=O)c1ccccc1 (plate: M 15-16) | inactive: -1.71
17 | Cc1cc(NS(=O)(=O)c2ccc(N)cc2)no1 (plate: M 5-6) | inactive: -0.371
18 | CN[C@@H]1[C@@H](O)[C@@H](O[C@@H]2[C@@H](O)[C@H](O[C@H]3OC(CN)=CC[C@H]3N)[C@@H](N)C[C@H]2N)OC[C@]1(C)O (plate: M 5-6) | inactive: -0.541
19 | CC1(C)S[C@@H]2[C@H](NC(=O)[C@H](C(=O)O)c3ccsc3)C(=O)N2[C@H]1C(=O)O (plate: M 11-12) | inactive: -0.061
20 | Cc1ccccc1OCC(O)CO (stereo not given) (plate: M 7-8) | inactive: 0.141

Compounds 15 to 16 from above:
Row | SMILES | tryptophan fluorescence intensity z-score
15 | O=C1CN(/N=C/c2ccc(-c3ccc([N+](=O)[O-])cc3)o2)C(=O)N1 (plate: M 7-8) | inactive: -0.0151
16 | C=C[C@@H](C1=CC(=O)C(OC)=C(OC)C1=O)c1ccccc1 (plate: M 15-16) | inactive: -1.71

Next part

Row | SMILES | tryptophan fluorescence intensity z-score
21 | O=C1CN(/N=C/c2ccc([N+](=O)[O-])o2)C(=O)N1 (plate: M 3-4) | inactive: -0.5
22 | c1ccc2c(c1)CN1CCCC1=N2 (plate: M 19-20) | inactive: 0.536
23 | COc1c(-c2ccccc2)oc2c(ccc3occc32)c1=O (plate: M 23-24) | inactive: 0.466
24 | Cc1c(C(=O)O)c(O)cc2c1C(=O)c1c(O)c([C@@H]3O[C@H](CO)[C@@H](O)[C@H](O)[C@H]3O)c(O)c(O)c1C2=O (plate: M 17-18) | inactive: -0.663
25 | CCN(CC)CCOC(=O)C(Cc1cccc2ccccc12)CC1CCCO1 (stereo not given) (plate: M 9-10) | inactive: 0.544
26 | CC1(C)S[C@@H]2[C@H](NC(=O)C(C(=O)O)c3ccccc3)C(=O)N2[C@H]1C(=O)O (stereo not given in full) (plate: M 1-2) | inactive: 0.597
27 | C[C@H](N)[C@H](O)c1cccc(O)c1 (plate: M 7-8) | inactive: -0.174
28 | CCN(CC)C(=S)SSC(=S)N(CC)CC (plate: M 3-4) | inactive: -1.84
29 | C=C[C@@]1(C)CC(=O)[C@]2(O)[C@@]3(C)[C@@H](O)CCC(C)(C)[C@@H]3[C@H](O)[C@H](OC(C)=O)[C@@]2(C)O1 (plate: M 9-10) | inactive: -0.0305
30 | CN(Cc1cnc2nc(N)nc(N)c2n1)c1ccc(C(=O)NC(CCC(=O)O)C(=O)O)cc1 (racemic) (plate: M 3-4) | inactive: -0.835
31 | O=c1cc(-c2ccccc2)oc2cc(O)cc(O)c12 (plate: M 17-18) | inactive: 0.163
32 | Nc1c2c(nc3ccccc13)CCCC2 (plate: M 11-12) | inactive: 0.122
33 | COC(=O)CC1C(C)(C)C(OC(C)=O)[C@@H]2[C@@H](OC(C)=O)[C@]34O[C@@]2(O)[C@]1(C)C3CC[C@]1(C)C4=CC(=O)O[C@H]1c1ccoc1 (stereo not given in full) (plate: M 13-14) | inactive: -0.111
34 | COc1ccc2c(=O)c(-c3ccc(O)cc3)coc2c1 (plate: M 19-20) | inactive: 0.53
35 | NC[C@H]1O[C@H](O[C@H]2[C@H](O)[C@@H](O[C@H]3O[C@H](CO)[C@@H](O)[C@H](N)[C@H]3O)[C@H](N)C[C@@H]2N)[C@H](O)[C@@H](O)[C@@H]1O (plate: M 3-4) | inactive: 0.0651
36 | CC[C@H]1OC(=O)C[C@@H](O)[C@H](C)[C@@H](O[C@@H]2O[C@H](C)[C@@H](O[C@H]3C[C@@](C)(O)[C@@H](O)[C@H](C)O3)[C@H](N(C)C)[C@H]2O)[C@@H](CC=O)C[C@@H](C)C(=O)/C=C/C(C)=C/[C@@H]1CO[C@@H]1O[C@H](C)[C@@H](O)[C@@H](OC)[C@H]1OC (plate: M 9-10) | inactive: -0.202
37 | CNS(=O)(=O)c1ccc(NC(=O)c2ccccc2C(=O)O)cc1 (plate: M 11-12) | inactive: -0.729
38 | CCN(CC)CCOc1ccc2c(c1)C(=O)c1cc(OCCN(CC)CC)ccc1-2 (plate: M 13-14) | inactive: 1.42
39 | COc1ccc(C=CC(=O)O)cc1OC (plate: M 21-22) | inactive: -0.0934
40 | CC1(C)O[C@@H]2C[C@H]3[C@@H]4CCC5=CC(=O)C=C[C@]5(C)[C@H]4[C@@H](O)C[C@]3(C)[C@]2(C(=O)CO)O1 (plate: M 11-12) | inactive: 0.0477
